In PubChem BioAssay AID493014 (National Center for Advancing Translational Sciences (NCATS), 2011) one finds AC50 data, which are given here for 18 compounds.

What is called AC50 is the concentration giving half of the maximal activity seen.

SMILES strings stand for the structures. The list shows a part of the results. These are further read-outs of the screen, such as a control signal, another cell line or another target. No call is given for them. Compounds called inactive in the main read-out are mostly missing here. The note in brackets gives the kind of curve behind each potency; many fits are weak.

The nature of the test: qHTS Assay to Find Inhibitors of Chronic Active B-Cell Receptor Signaling. The conditions noted are these: ABC-DLBCL IkBa-CBG/CBR reporter, luminescence ratio (green luciferase fused to IkBa over red control in TMD8 lymphoma cells), 4 h; measured here: CBR red luminescence, cell number. The method, boiled down:
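Concentration-response series (up to 46 uM) were applied to TMD8 dual-reporter cells for 4 h at 37C with doxycycline. Green/red ratio, after filter-overlap correction, defined %Activity; red signal alone was normalised to basal cells and zero luminescence.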
A general note: In qHTS, concentration-response curves come from the screen itself.
On to `COc1cc(NC(=O)c2cc([N+](=O)[O-])ccc2Br)ccc1NC(=O)c1ccco1`, for which the AC50 was 1.46 µM [falling, full curve].
Turning to `O=C(O)c1cccc(Cn2c(Cl)c(/C=N/NC(=O)c3ccccc3)sc2=O)c1`, the AC50 was 10 µM [falling, partial curve, poor fit].
With `COC(=O)c1ccc(/C=C/c2ccc3cccc(OC(C)=O)c3n2)cc1`, the concentration at half-maximal activity (AC50) was 0.103 µM [falling, full curve].
As for `COc1ccccc1OCCCOc1c(C)cc(C)cc1Br`, the figure is 29.1 µM [rising, single point]; as for `COc1ccc2[nH]c(C(=O)Nc3ccc(C)c(F)c3)cc2c1`, 3.98 µM [rising, partial curve, poor fit].
Take `COC(=O)c1sc(N)c(C(=O)OC)c1COC(=O)C12CC3CC(CC(O)(C3)C1)C2`: the AC50 is 20 µM [rising, partial curve, poor fit].
Regarding `Cn1c(=O)cc(SCC(=O)NCc2cccnc2)c2ccccc21`, the AC50 was 29.1 µM [rising, single point].
Consider `NC(=O)Cc1ccc(Nc2nnc(-c3ccc(O)cc3)c3ccccc23)cc1`, for which the AC50 is 29.1 µM [falling, single point].
In the case of `CC1CCN(C(=O)c2ccc(SCc3ccccc3F)c([N+](=O)[O-])c2)CC1`, the half-maximal activity concentration (AC50) was 1.84 µM [falling, partial curve, poor fit].
`O=C(Nc1ccccc1)c1cc2ccccc2o1`: the half-maximal activity concentration (AC50) is 1.84 µM [falling, full curve].
In the case of `C/C(=N\NC(=O)c1nn(C)cc1Br)c1cccc(NC(=O)c2ccncc2)c1`, the AC50 was 8.2 µM [falling, partial curve].
With `CCc1ccc(NC(=O)Nc2cccc(OC)c2)cc1`, the AC50 is 8.91 µM [falling, partial curve].
With `O=C1c2cccc3c([N+](=O)[O-])c(O)cc(c23)C(=O)N1Nc1ccccc1`, the concentration at half-maximal activity (AC50) was 11.2 µM [falling, partial curve].
For the compound `CCC(=O)N(Cc1cc(=O)[nH]c2ccccc12)c1cccc(C)c1`, the AC50 is 35.5 µM [falling, single point].
Consider `CCCCN(C(=O)C(C)Oc1ccc(Br)cc1)c1c(N)n(Cc2ccccc2)c(=O)[nH]c1=O` (stereo not drawn), for which the AC50 is 35.5 µM [falling, single point].
As for `COc1cccc2cc(C(=O)Nc3ccc(S(=O)(=O)NCC4CCCO4)cc3)c(=O)oc12` (stereo not drawn), the AC50 is 35.5 µM [rising, partial curve, poor fit].
On to `COc1ccc(CNC(=O)C[C@H]2C(=O)N(CCc3ccccc3)C[C@@H]2Cc2ccccc2)cc1`, for which the AC50 is 35.5 µM [falling, single point].
In the case of `COc1ccc(CCSc2nnc(C3CCCCC3)n2N)cc1`, the concentration at half-maximal activity (AC50) was 29.1 µM [falling, single point].
